Source: PubChem BioAssay AID652243 (Drosophila RNAi Screening Center, 2013)

- Test: 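Fly regulators of androgen-dependent reporter output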 (primary screen)
- Cell system: Drosophila S2R+ cells
- Reagents: long dsRNA against Drosophila genes
- Duration: 72 h (48 h, then 24 h hormone)
- Challenge: synthetic androgen R1881 at 10 nM for 24 h
- Detection: 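Firefly light from an androgen-responsive reporter and Renilla control light per well, raw and unnormalised, for each of two replicates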
- Reading the numbers: firefly reporter light: higher = more light from androgen-responsive reporter; Renilla control light: higher = more constitutive control signal (cell number, transfection)
- Hit rule: 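Across duplicate plates, a knock-down whose log firefly/Renilla ratio shifted a set fold down or up from the GFP/LacZ control mean was a hit; the downward cut appears as both 1.5 and 3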
- Calls: active = hit: reporter lowered or raised; inactive = no hit
The screen tested about 24,000 reagents; this is an unselected part of those with a known target gene and a result. In the full data, 246 (1%) got an active call. 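Plates not normalised; calls are printed but the firefly/Renilla ratio behind them is not deposited; fold cut for lowering reported inconsistently.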 Raw values vary from plate to plate and are shown uncorrected. No sequences are given here. Not given: the amount of reagent.

{"Gene": "CG1024", "DRSC id": "DRSC12496", "firefly reporter light, replicate 1": 60661, "firefly reporter light, replicate 2": 55180, "Renilla control light, replicate 1": 9.80e5, "Renilla control light, replicate 2": 1.56e6, "outcome": "inactive"}
{"Gene": "Osi10b (Osiris 10b)", "DRSC id": "DRSC12279", "firefly reporter light, replicate 1": 1.04e5, "firefly reporter light, replicate 2": 1.46e5, "Renilla control light, replicate 1": 2.21e6, "Renilla control light, replicate 2": 2.08e6, "outcome": "inactive"}
{"Gene": "CG9986", "DRSC id": "DRSC16586", "firefly reporter light, replicate 1": 98357, "firefly reporter light, replicate 2": 88879, "Renilla control light, replicate 1": 8.58e5, "Renilla control light, replicate 2": 7.29e5, "outcome": "inactive"}
{"Gene": "CG9986", "DRSC id": "DRSC29323", "firefly reporter light, replicate 1": 7.93e5, "firefly reporter light, replicate 2": 9.18e5, "Renilla control light, replicate 1": 1.27e6, "Renilla control light, replicate 2": 1.27e6, "outcome": "inactive"}
{"Gene": "2mit", "DRSC id": "DRSC14194", "firefly reporter light, replicate 1": 74119, "firefly reporter light, replicate 2": 75791, "Renilla control light, replicate 1": 1.02e6, "Renilla control light, replicate 2": 1.50e6, "outcome": "inactive"}
{"Gene": "2mit", "DRSC id": "DRSC15224", "firefly reporter light, replicate 1": 64716, "firefly reporter light, replicate 2": 63234, "Renilla control light, replicate 1": 1.30e6, "Renilla control light, replicate 2": 1.80e6, "outcome": "inactive"}
{"Gene": "2mit", "DRSC id": "DRSC36924", "outcome": "inactive"}
{"Gene": "TwdlE (TweedleE)", "DRSC id": "DRSC02392", "firefly reporter light, replicate 1": 2.06e5, "firefly reporter light, replicate 2": 2.53e5, "Renilla control light, replicate 1": 1.92e6, "Renilla control light, replicate 2": 1.92e6, "outcome": "inactive"}
{"Gene": "TwdlE (TweedleE)", "DRSC id": "DRSC24943", "firefly reporter light, replicate 1": 5.79e5, "firefly reporter light, replicate 2": 8.08e5, "Renilla control light, replicate 1": 1.30e6, "Renilla control light, replicate 2": 1.43e6, "outcome": "inactive"}

2 of these entries in another layout.
{"Gene":"2mit","DRSC id":"DRSC14194","firefly reporter light, replicate 1":74119,"firefly reporter light, replicate 2":75791,"Renilla control light, replicate 1":1.02e6,"Renilla control light, replicate 2":1.50e6,"outcome":"inactive"}
{"Gene":"2mit","DRSC id":"DRSC15224","firefly reporter light, replicate 1":64716,"firefly reporter light, replicate 2":63234,"Renilla control light, replicate 1":1.30e6,"Renilla control light, replicate 2":1.80e6,"outcome":"inactive"}

More records follow:
{"Gene": "bys (by S6)", "DRSC id": "DRSC18748", "firefly reporter light, replicate 1": 62456, "firefly reporter light, replicate 2": 34505, "Renilla control light, replicate 1": 6.02e5, "Renilla control light, replicate 2": 3.73e5, "outcome": "inactive"}
{"Gene": "bys (by S6)", "DRSC id": "DRSC29013", "firefly reporter light, replicate 1": 4.24e5, "firefly reporter light, replicate 2": 2.78e5, "Renilla control light, replicate 1": 1.14e6, "Renilla control light, replicate 2": 6.55e5, "outcome": "inactive"}
{"Gene": "HipHop (HP1-HOAP-interacting protein)", "DRSC id": "DRSC10734", "firefly reporter light, replicate 1": 44824, "firefly reporter light, replicate 2": 45398, "Renilla control light, replicate 1": 4.21e5, "Renilla control light, replicate 2": 3.08e5, "outcome": "inactive"}
{"Gene": "Sgs3 (Salivary gland secretion 3)", "DRSC id": "DRSC11280", "firefly reporter light, replicate 1": 3.09e5, "firefly reporter light, replicate 2": 3.25e5, "Renilla control light, replicate 1": 2.92e6, "Renilla control light, replicate 2": 2.88e6, "outcome": "inactive"}
{"Gene": "Sgs3 (Salivary gland secretion 3)", "DRSC id": "DRSC28210", "firefly reporter light, replicate 1": 1.01e6, "firefly reporter light, replicate 2": 1.34e6, "Renilla control light, replicate 1": 1.99e6, "Renilla control light, replicate 2": 2.14e6, "outcome": "inactive"}
{"Gene": "Sgs3 (Salivary gland secretion 3)", "DRSC id": "DRSC38946", "firefly reporter light, replicate 1": 5.96e5, "firefly reporter light, replicate 2": 4.52e5, "Renilla control light, replicate 1": 1.13e6, "Renilla control light, replicate 2": 1.04e6, "outcome": "inactive"}
{"Gene": "CG8141", "DRSC id": "DRSC16387", "firefly reporter light, replicate 1": 1.51e5, "firefly reporter light, replicate 2": 1.80e5, "Renilla control light, replicate 1": 2.33e6, "Renilla control light, replicate 2": 2.29e6, "outcome": "inactive"}
{"Gene": "CG44433", "DRSC id": "DRSC06517", "firefly reporter light, replicate 1": 1.40e5, "firefly reporter light, replicate 2": 2.19e5, "Renilla control light, replicate 1": 2.59e6, "Renilla control light, replicate 2": 2.85e6, "outcome": "inactive"}
{"Gene": "CG44433", "DRSC id": "DRSC06518", "firefly reporter light, replicate 1": 67692, "firefly reporter light, replicate 2": 93492, "Renilla control light, replicate 1": 7.72e5, "Renilla control light, replicate 2": 1.13e6, "outcome": "inactive"}
{"Gene": "CG44433", "DRSC id": "DRSC26571", "firefly reporter light, replicate 1": 2.89e5, "firefly reporter light, replicate 2": 3.28e5, "Renilla control light, replicate 1": 6.16e5, "Renilla control light, replicate 2": 6.53e5, "outcome": "inactive"}
{"Gene": "Acp62F (Accessory gland protein 62F)", "DRSC id": "DRSC08136", "firefly reporter light, replicate 1": 1.08e5, "firefly reporter light, replicate 2": 1.06e5, "Renilla control light, replicate 1": 1.24e6, "Renilla control light, replicate 2": 1.04e6, "outcome": "inactive"}
{"Gene": "MESK2 (Misexpression suppressor of KSR 2)", "DRSC id": "DRSC04258", "firefly reporter light, replicate 1": 2.86e5, "firefly reporter light, replicate 2": 2.75e5, "Renilla control light, replicate 1": 2.05e6, "Renilla control light, replicate 2": 1.56e6, "outcome": "inactive"}
{"Gene": "MESK2 (Misexpression suppressor of KSR 2)", "DRSC id": "DRSC28508", "firefly reporter light, replicate 1": 2.02e5, "firefly reporter light, replicate 2": 4.21e5, "Renilla control light, replicate 1": 8.81e5, "Renilla control light, replicate 2": 1.21e6, "outcome": "inactive"}
